Our source for the binding values is paper PMC10204415 (2023).

These are yes or no findings as the source states them, for the method shown. For some assays here: In cells and extracts the contact can be indirect. Some entries that bind do so weakly or less than the wild type. Where a sequence is shown, tags or fusion partners need not be part of it.

The target of assay [1] is T1, MBP-ARHGEF11 (mouse ARHGEF11 residues 1334–1406, except for deleted residues 1352–1394 by alternative splicing) (mouse) (UniProt Q68FM7).
T1 sequence: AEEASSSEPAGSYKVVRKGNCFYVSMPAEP
The assay can be described thus: NMR titration; named only in one sentence; no data, constructs or conditions given.

Assay [2] has as its target T1, MBP-ARHGEF11 (mouse ARHGEF11 residues 1334–1406, except for deleted residues 1352–1394 by alternative splicing) (mouse). The assay can be described thus: pull-down; MBP-ARHGEF11 captured from crude E. coli extract on a GSA (gelatinized starch–agarose)-coated 96-well plate and washed; 3% BSA blocking at 4 °C for 1 h; GST-ZO1-ZU5 overlaid at 4 °C for 30 min; GSA buffer (150 mM NaCl, 50 mM Tris-HCl pH 7.4); co-eluted with 10 mM maltose; SDS-PAGE with Coomassie staining; only the target purified.

B1: GST-ZO1-ZU5 (mouse ZO-1 ZU5 domain, residues 1624–1745) (domain or fragment)
chain: EDGHTVVATARGIFNSNGGVLSSIETGVSIIIPQGAIPEGIEQEIYFKVCRDNSILPPLDKEKGETLLSPLVMCGPHGLKFLKPVELRLPHCDPKTWQNKCLPGDPNYLVGANCVSVLIDHF
For the molecule B1, the binding result in assay [1] and in assay [2] was “binds” in each case.
